Laboratory results from the supplement of paper PMC7830784.
Where a name gives a salt, the structure may show the parent alone. This is one part of the list. Repeats in this data set agree poorly, so a single value says little.

The compounds below were run on Brugia pahangi adult female (assay: motility inhibition on day 3 relative to DMSO vehicle; higher = more active). Conditions: 10 µM; 3 days.

Row | Compound | motility inhibition on day 3
1 | O=C(O)c1cc(-c2ccccc2)nc2ccccc12 [cinchophen] | < 0%
2 | CC(C)NCC(O)c1ccc2ccccc2c1 (stereo not given) [pronetalol hydrochloride] | 15.8%
3 | CN(C)c1nc(N(C)C)nc(N(C)C)n1 [altretamine] | 8.02%
4 | COc1ccccc1OCC(O)CN1CCN(CC(=O)Nc2c(C)cccc2C)CC1 (stereo not given) [ranolazine] | 4.05%
5 | CCCNCC(O)COc1ccccc1C(=O)CCc1ccccc1 (stereo not given) [propafenone hydrochloride] | < 0%
6 | NC(=O)C(c1ccccc1)(c1ccccc1)[C@@H]1CCN(CCc2ccc3c(c2)CCO3)C1 [darifenacin hydrobromide] | 9.69%
7 | C[C@H]1C[C@@H]2[C@H]([C@@H](O)C[C@@]3(C)[C@H]2CC[C@]3(O)C(=O)CO)[C@@]2(C)C=CC(=O)C=C12 [methylprednisolone] | 14.8%
8 | COc1ccc(C2CNC(=O)C2)cc1OC1CCCC1 (stereo not given) [Rolipram] | 4.69%
9 | CCCCC(F)(F)[C@@]1(O)CC[C@H]2[C@@H](CC(=O)[C@@H]2CCCCCCC(=O)O)O1 [Lubiprostone] | 1.45%
10 | NC(=O)c1ccc([N+](=O)[O-])cc1Cl [aklomide] | 16%
11 | CC(C)[C@H](N)C(=O)OCC(CO)OCn1cnc2c(=O)nc(N)[nH]c21 (stereo not given in full) [valganciclovir hydrochloride] | 8.89%
12 | O=C1OCCN1/N=C/c1ccc([N+](=O)[O-])o1 [furazolidone] | 27.6%
13 | c1ccc([C@H]2CN3CCSC3=N2)cc1 [levamisole hydrochloride] | 65.8%
14 | CCC(=O)O[C@]1(C(=O)CCl)[C@@H](C)C[C@H]2[C@@H]3CCC4=CC(=O)C=C[C@]4(C)[C@@]3(F)[C@@H](O)C[C@@]21C [clobetasol propionate] | 0.554%
15 | Cc1c(O)c(=O)ccn1C [deferiprone] | < 0%
16 | CC(=O)OCC(CCn1cnc2cnc(N)nc21)COC(C)=O [famciclovir] | < 0%
17 | NNc1nncc2ccccc12 [hydralazine hydrochloride] | < 0%
18 | NCC(O)CC(=O)O (stereo not given) [aminohydroxybutyric acid] | 1.23%
19 | C[C@H](CCC(=O)O)[C@H]1CC[C@H]2[C@@H]3[C@H](O)C[C@@H]4C[C@H](O)CC[C@]4(C)[C@H]3CC[C@]12C [chenodiol] | 18.2%
20 | Nc1cc(C(Cl)=C(Cl)Cl)c(S(N)(=O)=O)cc1S(N)(=O)=O [clorsulon] | 17.3%
21 | COc1c2occc2c(OC)c2c(=O)cc(C)oc12 [khellin] | < 0%
22 | C1CNCCN1 [piperazine] | < 0%
23 | CC(=O)[C@]1(O)Cc2c(O)c3c(c(O)c2[C@@H](O[C@H]2C[C@H](N)[C@H](O)[C@H](C)O2)C1)C(=O)c1ccccc1C3=O | 7.73%
24 | O=c1oc2ccccc2c(O)c1Cc1c(O)c2ccccc2oc1=O [dicumarol] | 9.46%
25 | CN1CCN(CCCN2c3ccccc3Sc3ccc(Cl)cc32)CC1 [Prochlorperazine dimaleate] | < 0%
26 | CCN(CC)CCc1nc(-c2ccccc2)no1 [oxolamine citrate] | 15.9%
27 | O=S(=O)(O)NC1CCCCC1 [cyclamic acid] | < 0%

Row | Compound | motility inhibition on day 3
28 | CCc1cn([C@H]2C[C@H](O)[C@@H](CO)O2)c(=O)[nH]c1=O [edoxudine] | < 0%
29 | CC(C)NC[C@@H](O)COc1cccc2ccccc12 [dexpropranolol hydrochloride] | 23.6%
30 | CC(NCCC(c1ccccc1)c1ccccc1)c1ccccc1 (stereo not given) [fendiline hydrochloride] | < 0%
31 | Cc1c(N(C)CS(=O)(=O)O)c(=O)n(-c2ccccc2)n1C [dipyrone] | < 0%
32 | CN(C)[C@@H]1C(O)=C(C(=O)NCN2CCCC2)C(=O)[C@@]2(O)C(O)=C3C(=O)c4c(O)cccc4[C@@](C)(O)[C@H]3C[C@@H]12 [rolitetracycline] | 13.9%
33 | CC(C)/N=c1\cc2n(-c3ccc(Cl)cc3)c3ccccc3nc-2cc1Nc1ccc(Cl)cc1 [clofazimine] | 51%
34 | O=C1Cc2cc(CCN3CCN(c4nsc5ccccc45)CC3)c(Cl)cc2N1 [ziprasidone mesylate] | 5.74%
35 | CCN[C@H]1C[C@H](C)S(=O)(=O)c2sc(S(N)(=O)=O)cc21 [Dorzolamide??HCl] | 12.8%
36 | CC(=O)N(O)CCCCCNC(=O)CCC(=O)N(O)CCCCCNC(=O)CCC(=O)N(O)CCCCCN [deferoxamine mesylate] | 56.4%
37 | CC(C)(C(=O)c1cccnc1)c1cccnc1 [metyrapone] | 22.7%
38 | CN1CC(=O)NC1=N [creatinine] | 2.67%
39 | C[C@]12CC[C@@H]3c4ccc(O)cc4CC[C@H]3[C@@H]1CC[C@@H]2OC(=O)CCC1CCCC1 [estradiol cypionate] | 0.0736%
40 | CCC(NC(C)C)C(O)c1ccc(O)c(O)c1 (stereo not given) [isoetharine mesylate] | 4.46%
41 | CCC(Cc1c(I)cc(I)c(N)c1I)C(=O)O (stereo not given) [iopanic acid] | 9.88%
42 | CN1CCc2cccc3c2[C@H]1Cc1ccc(O)c(O)c1-3 [R(-)-Apomorphine hydrochloride] | 1.77%
43 | CN1CCc2cccc3c2[C@H]1Cc1ccc(O)c(O)c1-3 [apomorphine hydrochloride] | 53.3%
44 | CCOC(=O)C(C)(C)Oc1ccc(Cl)cc1 [Clofibrate] | 16.8%
45 | CO[C@@]1(NC(=O)CSCC#N)C(=O)N2C(C(=O)O)=C(CSc3nnnn3C)CS[C@@H]21 [cefmetazole sodium] | 9.32%
46 | C[C@@H]1[C@H](O)[C@@H](C)/C=C/C=C/C=C/C=C/C=C/C=C/C=C/[C@H](O[C@@H]2O[C@H](C)[C@@H](O)[C@H](N)[C@@H]2O)C[C@@H]2O[C@](O)(C[C@@H](O)C[C@@H](O)[C@H](O)CC[C@@H](O)C[C@@H](O)CC(=O)O[C@H]1C)C[C@H](O)[C@H]2C(=O)O [amphotericin b] | 34.5%
47 | Nc1ncnc(Nc2ccc(Cl)cc2)n1 [chlorazanil hydrochloride] | 37.4%
48 | CCCCCCCCCCCCCCCC(=O)NCCO [palmidrol] | 4.69%
49 | CN1CCN(C2=Nc3cc(Cl)ccc3Nc3ccccc32)CC1 [Clozapine] | 1.19%
50 | NC12CC3CC(CC(C3)C1)C2 [Amantadine hydrochloride] | 6.41%
51 | CO[C@H]1O[C@@H]2O[C@@]3(C)CC[C@H]4[C@H](C)CC[C@@H]([C@H]1C)[C@@]24OO3 [artemether] | 19.2%
52 | Cc1cc(=O)n(-c2ccccc2)n1C [antipyrine] | 2.22%
53 | Clc1ccc(COC(Cn2ccnc2)c2ccc(Cl)cc2Cl)c(Cl)c1 (stereo not given) [miconazole nitrate] | 95.5%
54 | CC1CCc2c(N3CCC(O)CC3)c(F)cc3c(=O)c(C(=O)O)cn1c23 (stereo not given) [nadifloxacin] | < 0%

Row | Compound | motility inhibition on day 3
55 | Cc1ccc(-c2ncc(Cl)cc2-c2ccc(S(C)(=O)=O)cc2)cn1 [Etoricoxib] | 18.4%
56 | CC(C)(Oc1ccc(Cl)cc1)C(=O)O [clofibric acid] | < 0%
57 | CN1CCCN=C1COC(=O)C(O)(c1ccccc1)C1CCCCC1 (stereo not given) [oxyphencyclimine hydrochloride] | 12.5%
58 | CC(=O)N[C@@H](CCC(N)=O)C(=O)O [aceglutamide] | < 0%
59 | CC(=O)NO [acetohydroxamic acid] | < 0%
60 | O=C(O)C1CSCN1 (stereo not given) [timonacic] | 13.5%
61 | CC(C)(S)[C@@H](N)C(=O)O [penicillamine] | < 0%
62 | CCC(=O)OCC(=O)[C@@]1(OC(=O)CC)[C@H](C)CC2C3C([C@@H](O)C[C@@]21C)[C@@]1(C)C=CC(=O)C=C1C[C@H]3Cl (stereo not given in full) [alclometazone dipropionate] | 3.25%
63 | O=C1O[C@H](CO)[C@@H](O)[C@H](O)[C@H]1O [gluconolactone] | 8.32%
64 | CCCCCCCCCCC[C@@H](C[C@@H]1OC(=O)[C@H]1CCCCCC)OC(=O)[C@H](CC(C)C)NC=O [orlistat] | < 0%
65 | CCCN(CCC)C(=O)C(CCC(=O)O)NC(=O)c1ccccc1 (stereo not given) [Proglumide] | 24.1%
66 | CCN1C(=O)NC(c2ccccc2)C1=O (stereo not given) [ethotoin] | 3.38%
67 | CN1CCC(=C2c3ccccc3CC(=O)c3sccc32)CC1 [ketotifen fumarate] | 47.7%
68 | COc1ccccc1N1CCN(CC(O)COc2cccc3ccccc23)CC1 (stereo not given) [Naftopidil dihydrochloride] | 2.28%
69 | COc1cc(OC)c(C(=O)CCCN2CCCC2)c(OC)c1 [buflomedil hydrochloride] | 20.1%
70 | O.O.O.O.O=C([O-])CC(O)(CC(=O)[O-])C(=O)[O-].[Li+].[Li+].[Li+] [lithium citrate] | 5.55%
71 | N#CC(c1ccc(Cl)cc1)c1c(Cl)cc(-n2ncc(=O)[nH]c2=O)cc1Cl (stereo not given) [diclazuril] | < 0%
72 | Cn1ccnc1S [methimazole] | 45.7%
73 | Oc1ccc(Cl)c2cccnc12 [cloxyquin] | 86.4%
74 | Nc1c(Br)cc(Br)cc1CN[C@H]1CC[C@H](O)CC1 [ambroxol hydrochloride] | < 0%
75 | CCC(=O)c1ccc(O)cc1 [paroxypropione] | < 0%
76 | CC(C)(Sc1cc(C(C)(C)C)c(O)c(C(C)(C)C)c1)Sc1cc(C(C)(C)C)c(O)c(C(C)(C)C)c1 [probucol] | < 0%
77 | COc1cc(Cc2cnc(N)nc2N)cc(OC)c1OC [Trimethoprim] | 13.4%
78 | COCC1=C(C(=O)OC(C)OC(=O)OC(C)C)N2C(=O)[C@@H](NC(=O)/C(=N\OC)c3csc(N)n3)[C@H]2SC1 (stereo not given in full) [cefpodoxime proxetil] | < 0%
79 | CCN(CC)CCOC(=O)C(c1ccccc1)C1CCCCC1 (stereo not given) [drofenine hydrochloride] | < 0%
80 | CCCCC(CC)CN1CN(CC(CC)CCCC)CC(C)(N)C1 (stereo not given) [hexetidine] | 99.8%

Copied from the list:
motility inhibition on day 3, CCN(CC)CCOC(=O)C(c1ccccc1)C1CCCCC1 (stereo not given) [drofenine hydrochloride] reads < 0%
motility inhibition on day 3, CCC(=O)O[C@]1(C(=O)CCl)[C@@H](C)C[C@H]2[C@@H]3CCC4=CC(=O)C=C[C@]4(C)[C@@]3(F)[C@@H](O)C[C@@]21C [clobetasol propionate] reads 0.554%
motility inhibition on day 3, COc1ccccc1N1CCN(CC(O)COc2cccc3ccccc23)CC1 (stereo not given) [Naftopidil dihydrochloride] reads 2.28%
motility inhibition on day 3, CN(C)[C@@H]1C(O)=C(C(=O)NCN2CCCC2)C(=O)[C@@]2(O)C(O)=C3C(=O)c4c(O)cccc4[C@@](C)(O)[C@H]3C[C@@H]12 [rolitetracycline] reads 13.9%
motility inhibition on day 3, CN(C)c1nc(N(C)C)nc(N(C)C)n1 [altretamine] reads 8.02%
